The list is a part of this screen's results and no random one: it gathers tests that were run many times, whatever their T/C, doses with no T/C, and many T/C values between a quarter and a half above the control. Further doses and runs are listed elsewhere. T/C is the treated group as % of the vehicle group. Some entries give survivors of the animals treated and no T/C: the source files T/C as zero there, which appears to mark a toxic dose or a test without result, not a measured value. Some doses without a T/C left all or most animals alive at the check, yet need not have been tolerated: survival well below the control is almost never listed, so the zero probably covers shortened survival too. Counts of survivors are from the toxicity check (mostly the fifth day) where no day follows; animals may have died later. Schedule codes are those of the source, taken here to give the interval after Q, in days (D) or hours (H), and the number of doses after X. Some schedules carry Z or #; the key to these is not given. Some structures stand for samples that the source files as different forms (salt, stereo form or complex); doses refer to the form tested. Where survival is the endpoint, this PubChem deposit counts one and a half times the control or more as active, and values a quarter to a half above the control carry no call in these data; other NCI protocols may use other cut-offs.
Test system: L1210 leukemia ip in BDF1 mice, survival T/C
Assay: NCI In Vivo Anticancer Drug Screen. Data for tumor model L1210 Leukemia (intraperitoneal) in B6D2F1 (BDF1) mice
Settings: T/C endpoint: mean survival time, higher T/C = longer survival
[1] = dose: 100.0 mg/kg/injection, schedule: Q04DX003 (ip), vehicle: saline
[2] = dose: 400.0 mg/kg/injection, schedule: Q01DX009 (ip), vehicle: saline with Tween-80
[3] = dose: 100.0 mg/kg/injection, schedule: Q01DX009 (ip), vehicle: saline
[4] = dose: 200.0 mg/kg/injection, schedule: Q04DX003 (ip), vehicle: saline
[5] = dose: 400.0 mg/kg/injection, schedule: Q04DX003 (ip), vehicle: saline
[6] = dose: 400.0 mg/kg/injection, schedule: Q01DX009 (ip), vehicle: Klucel (hydroxypropylcellulose) (HPC)
[7] = dose: 100.0 mg/kg/injection, schedule: Q01DX001 (ip), vehicle: saline
[8] = dose: 400.0 mg/kg/injection, schedule: Q01DX001 (ip), vehicle: saline
[9] = dose: 200.0 mg/kg/injection, schedule: Q04DX003 (ip), vehicle: saline with Tween-80
[10] = dose: 200.0 mg/kg/injection, schedule: Q01DX009 (ip), vehicle: Klucel (hydroxypropylcellulose) (HPC)
[11] = dose: 200.0 mg/kg/injection, schedule: Q04DX003 (ip), vehicle: Klucel (hydroxypropylcellulose) (HPC)

SMILES: CNC(=O)NO
- T/C (dose: 100.0 mg/kg/injection, schedule: Q01DX Z (ip), vehicle: water): 143 % of control

SMILES: Cc1ccc(NC(=S)NN)cc1F
- survivor count (dose: 75.0 mg/kg/injection, schedule: Q01DX001 (ip), vehicle: other): 3 of 6
- survivor count (dose: 150.0 mg/kg/injection, schedule: Q01DX001 (ip), vehicle: other): 0 of 6
- survivor count (dose: 300.0 mg/kg/injection, schedule: Q01DX001 (ip), vehicle: other): 0 of 6

SMILES: CN(C)CCCCc1cn(-c2ccccc2)c2ccccc12
- survivor count (dose: 60.0 mg/kg/injection, schedule: Q01DX015 (ip), vehicle: saline): 0 of 6
- survivor count [1]: 2 of 6
- survivor count (dose: 120.0 mg/kg/injection, schedule: Q01DX015 (ip), vehicle: saline): 0 of 6
- survivor count (dose: 240.0 mg/kg/injection, schedule: Q01DX015 (ip), vehicle: saline): 0 of 6

SMILES: CC(C)=C(c1ccc(C(C)(C)C)cc1)c1ccc(C(C)(C)C)cc1
- survivor count [2]: 6 of 6

SMILES: CC(CCc1ccccc1)NN (stereo not drawn)
- survivor count [3]: 0 of 6
- survivor count [1]: 4 of 4
- survivor count (dose: 200.0 mg/kg/injection, schedule: Q01DX009 (ip), vehicle: saline): 0 of 6
- survivor count [4]: 3 of 4
- survivor count (dose: 400.0 mg/kg/injection, schedule: Q01DX009 (ip), vehicle: saline): 0 of 6
- survivor count [5]: 0 of 4

SMILES: O=C(O)c1c(Cl)c(Cl)c(Cl)c(Cl)c1C(=O)Nc1cccc(C(F)(F)F)c1
- survivor count [6]: 3 of 6

SMILES: Cc1cc(N(CCCl)CCCl)ccc1N=Nc1ccccc1C(=O)O
- T/C (dose: 6.2 mg/kg/injection, schedule: Q01DX Z (ip), vehicle: carboxymethylcellulose (CMC)): 127 % of control
- T/C (dose: 12.5 mg/kg/injection, schedule: Q01DX Z (ip), vehicle: carboxymethylcellulose (CMC)): 130 % of control
- T/C (dose: 20.0 mg/kg/injection, schedule: Q01DX010 (ip), vehicle: saline): 145 % of control
- survivor count (dose: 40.0 mg/kg/injection, schedule: Q01DX010 (ip), vehicle: saline): 6 of 6
- survivor count (dose: 50.0 mg/kg/injection, schedule: Q01DX Z (ip), vehicle: carboxymethylcellulose (CMC)): 6 of 6
- survivor count (dose: 60.0 mg/kg/injection, schedule: Q01DX Z (ip), vehicle: carboxymethylcellulose (CMC)): 3 of 6

SMILES: CCCSCCCC(=O)O
- survivor count [6]: 2 of 6

SMILES: NC(=O)CNC(=O)CNC(=O)CNC(=O)OCc1ccccc1
- survivor count (dose: 100.0 mg/kg/injection, schedule: Q01DX009 (ip), vehicle: saline with Tween-80): 5 of 6
- survivor count (dose: 200.0 mg/kg/injection, schedule: Q01DX009 (ip), vehicle: saline with Tween-80): 1 of 6
- survivor count [2]: 0 of 6

SMILES: OB(O)CI
- survivor count (dose: 40.0 mg/kg/injection, schedule: Q01DX001 (ip), vehicle: saline): 0 of 4
- survivor count (dose: 50.0 mg/kg/injection, schedule: Q01DX001 (ip), vehicle: saline): 0 of 4
- survivor count (dose: 80.0 mg/kg/injection, schedule: Q01DX001 (ip), vehicle: saline): 0 of 4
- survivor count [7]: 0 of 4
- survivor count (dose: 200.0 mg/kg/injection, schedule: Q01DX001 (ip), vehicle: saline): 0 of 4
- survivor count [8]: 0 of 4

SMILES: COc1cccc(/C=N\N=C\c2cccc(OC)c2O)c1O
- survivor count (dose: 100.0 mg/kg/injection, schedule: Q01DX001 (ip), vehicle: saline with Tween-80): 6 of 6

SMILES: CCCCCCCCC(C)C
- survivor count (dose: 400.0 mg/kg/injection, schedule: Q04DX002 (ip), vehicle: saline with Tween-80): 2 of 3

SMILES: NC(N)=NCCCCCCN=C(N)N
- survivor count (dose: 50.0 mg/kg/injection, schedule: Q01DX Z (oral), vehicle: saline): 4 of 6
- survivor count (dose: 50.0 mg/kg/injection, schedule: Q04DX003 (ip), vehicle: saline with Tween-80): 1 of 6
- survivor count (dose: 100.0 mg/kg/injection, schedule: Q04DX003 (ip), vehicle: saline with Tween-80): 0 of 6
- survivor count [9]: 0 of 6
- survivor count (dose: 400.0 mg/kg/injection, schedule: Q04DX003 (ip), vehicle: saline with Tween-80): 0 of 6

SMILES: CCCCCCCC(=O)NOS(=O)(=O)O
- survivor count [7]: 1 of 6
- survivor count [3]: 0 of 6

SMILES: CCCC(=O)C(CCN(C)C)c1ccccn1 (stereo not drawn)
- survivor count (dose: 100.0 mg/kg/injection, schedule: Q01DX Z (ip), vehicle: methylcellulose (MC)): 2 of 6

SMILES: Cc1ccc(O)c(N=O)c1.[Cu+2]
- survivor count [8]: 0 of 4

SMILES: ClCCOCCOc1ccccc1OCCOCCCl
- survivor count (dose: 200.0 mg/kg/injection, schedule: Q04DX002 (ip), vehicle: saline with Tween-80): 3 of 3

SMILES: ClC1=CCCCC1
- survivor count (dose: 150.0 mg/kg/injection, schedule: Q01DX009 (ip), vehicle: saline with Tween-80): 1 of 6
- survivor count (dose: 225.0 mg/kg/injection, schedule: Q01DX009 (ip), vehicle: saline with Tween-80): 0 of 6
- survivor count (dose: 335.0 mg/kg/injection, schedule: Q01DX009 (ip), vehicle: saline with Tween-80): 1 of 6

SMILES: Cc1cc(=O)oc2cc(OC(=O)Nc3cccc(Cl)c3Cl)ccc12
- survivor count (dose: 100.0 mg/kg/injection, schedule: Q01DX009 (ip), vehicle: Klucel (hydroxypropylcellulose) (HPC)): 5 of 6
- survivor count [10]: 6 of 6
- survivor count [6]: 6 of 6

SMILES: C[N+]1(C)CCCCC1
- survivor count [1]: 1 of 6
- survivor count [4]: 0 of 6

SMILES: O=C(O)c1ccc(-c2ccc(C(=O)O)cc2I)c(I)c1
- survivor count [2]: 6 of 6

SMILES: CSc1nc(C)cc(SC(=N)N)n1
- survivor count [3]: 1 of 6
- survivor count [4]: 2 of 6
- survivor count [5]: 0 of 6

SMILES: CC(=O)Nc1ccc(OC(=O)Nc2c(C)cccc2Cl)cc1
- survivor count [10]: 3 of 6
- survivor count [6]: 0 of 6

SMILES: S=c1nn[nH]n1C1CCCCC1
- survivor count [9]: 6 of 6

SMILES: COc1cccc(NC(=O)N(CCCl)N=O)c1
- T/C (dose: 9.0 mg/kg/injection, schedule: Q01DX001 (ip), vehicle: carboxymethylcellulose (CMC)): 133 % of control
- survivor count (dose: 187.0 mg/kg/injection, schedule: Q01DX001 (ip), vehicle: carboxymethylcellulose (CMC)): 5 of 6
- survivor count (dose: 375.0 mg/kg/injection, schedule: Q01DX001 (ip), vehicle: carboxymethylcellulose (CMC)): 0 of 6
- survivor count (dose: 500.0 mg/kg/injection, schedule: Q01DX001 (ip), vehicle: carboxymethylcellulose (CMC)): 1 of 6
- survivor count (dose: 750.0 mg/kg/injection, schedule: Q01DX001 (ip), vehicle: carboxymethylcellulose (CMC)): 0 of 6

SMILES: O=C(NCCCl)NC1c2ccccc2-c2ccccc21
- survivor count [11]: 6 of 6

SMILES: FC1(F)SC2C3CC(C4CCC=C43)C2C1(F)F (stereo not drawn)
- survivor count (dose: 3.13 mg/kg/injection, schedule: Q01DX009 (ip), vehicle: Klucel (hydroxypropylcellulose) (HPC)): 1 of 6
- survivor count (dose: 6.25 mg/kg/injection, schedule: Q04DX003 (ip), vehicle: Klucel (hydroxypropylcellulose) (HPC)): 0 of 6
- survivor count (dose: 12.5 mg/kg/injection, schedule: Q04DX003 (ip), vehicle: Klucel (hydroxypropylcellulose) (HPC)): 0 of 6
- survivor count (dose: 25.0 mg/kg/injection, schedule: Q04DX003 (ip), vehicle: Klucel (hydroxypropylcellulose) (HPC)): 0 of 6
- survivor count (dose: 50.0 mg/kg/injection, schedule: Q04DX003 (ip), vehicle: Klucel (hydroxypropylcellulose) (HPC)): 0 of 6
- survivor count (dose: 100.0 mg/kg/injection, schedule: Q04DX003 (ip), vehicle: Klucel (hydroxypropylcellulose) (HPC)): 0 of 6
- survivor count [11]: 0 of 6
- survivor count (dose: 400.0 mg/kg/injection, schedule: Q04DX003 (ip), vehicle: Klucel (hydroxypropylcellulose) (HPC)): 0 of 6

Source: PubChem BioAssay AID248 (DTP/NCI, 2004)
